According to publication PMC13419597, “An Acetylation-Primed SUMOylation Switch Controls RORβ Stability through a p300-SIRT1 Regulatory Axis” (Research Square, 2024):
The exact form of at least one protein or probe is not confirmed. For some of these results: At least one verdict was read from the data and is not stated in words by the source.

Chains of the proteins cited; added tags and fusions are not shown. Chains listed by the source or under a name are the forms on record and can include a tag or linker.
RORβ (non-acetylated) (Homo sapiens), one chain, as listed by the source: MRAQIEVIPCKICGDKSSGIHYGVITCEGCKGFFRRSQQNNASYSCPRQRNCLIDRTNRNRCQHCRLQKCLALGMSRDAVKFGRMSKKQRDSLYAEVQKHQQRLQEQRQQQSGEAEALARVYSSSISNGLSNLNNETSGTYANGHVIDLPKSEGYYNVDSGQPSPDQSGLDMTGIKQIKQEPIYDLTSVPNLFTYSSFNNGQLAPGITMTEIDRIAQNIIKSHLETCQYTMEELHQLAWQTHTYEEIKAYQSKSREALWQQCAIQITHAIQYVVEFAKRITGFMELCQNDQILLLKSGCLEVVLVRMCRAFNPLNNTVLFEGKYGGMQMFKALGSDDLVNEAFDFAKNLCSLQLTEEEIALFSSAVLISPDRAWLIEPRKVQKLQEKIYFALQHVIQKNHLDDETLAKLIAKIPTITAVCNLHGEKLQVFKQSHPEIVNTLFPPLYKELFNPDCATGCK

How the values were obtained:
[1] = tested on: RORβ (non-acetylated) (Homo sapiens); assay: EMSA; conditions: non-acetylated, EMSA: 25 mM HEPES pH 8.0, 200 mM NaCl, 10 mM MgCl2, 5 mM sodium butyrate, 3.75% glycerol, 0.5 mM DTT, HALT protease inhibitor, 20 min RT, 8% native PAGE at 4 °C, recombinant protein
[2] = tested on: RORβ acetylated in vitro by p300 (Homo sapiens); assay: EMSA; conditions: p300 + acetyl-CoA, no difference from non-acetylated, EMSA: 25 mM HEPES pH 8.0, 200 mM NaCl, 10 mM MgCl2, 5 mM sodium butyrate, 3.75% glycerol, 0.5 mM DTT, HALT protease inhibitor, 20 min RT, 8% native PAGE at 4 °C, recombinant protein

Measured: binding result

ATTTAAAGTGGGTCAGAAAATTTTCTGACCCACTTTAAAT (double strand) [40-bp RORE oligonucleotide]
binds: [1]; RORβ:DNA 4:1 (DNA 0.25 µM) | [1]; RORβ:DNA 8:1 (DNA 0.25 µM) | [2]; RORβ:DNA 4:1 (DNA 0.25 µM) | [2]; RORβ:DNA 8:1 (DNA 0.25 µM)
